This assay has as its target GST-AMFRΔTM. Kind of assay: pull-down; in vitro GST pulldown: recombinant GST-AMFRΔTM with recombinant His-MYC-TXN (Figure S3C); both purified.

These are yes or no findings as the source states them, for the method shown. Binding calls can cover weak binding; strength is not graded here. Tags and fused reporters may be left off the sequences shown.

B1: His-MYC-TXN (protein, UniProt P10599 1-105)
chain: MVKQIESKTAFQEALDAAGDKLVVVDFSATWCGPCKMIKPFFHSLSEKYSNVIFLEVDVDDCQDVASECEVKCMPTFQFFKKGQKVGEFSGANKEKLEATINELV
Consider B1, for which the binding entry is on record as “binds”.
